The record followed here is PMC10801318.

Chains of the proteins cited; added tags and fusions are not shown.
UniProt Q5VVQ6: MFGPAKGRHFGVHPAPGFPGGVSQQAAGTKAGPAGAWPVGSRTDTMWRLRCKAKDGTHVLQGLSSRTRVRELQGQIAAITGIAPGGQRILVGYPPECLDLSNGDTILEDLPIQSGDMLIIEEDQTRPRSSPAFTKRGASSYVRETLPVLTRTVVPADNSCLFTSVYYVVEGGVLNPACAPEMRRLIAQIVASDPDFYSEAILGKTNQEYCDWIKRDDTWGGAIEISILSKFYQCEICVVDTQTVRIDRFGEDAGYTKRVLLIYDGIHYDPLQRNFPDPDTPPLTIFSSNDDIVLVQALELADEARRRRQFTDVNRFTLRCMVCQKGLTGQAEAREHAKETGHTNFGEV

No constants are given. Whether binding was seen depends on the method and setting. Binding seen in cells or lysates may run through a third protein. Some binding calls cover weakened binding; strength is not graded here. Where a sequence is shown, tags or fusion partners need not be part of it.

This assay deals with Myc-YOD1 (UniProt Q5VVQ6). Briefly: co-IP; Flag-TRIM54 and Myc-YOD1 cotransfected into HEK 293T cells, 24 h; RIPA lysate; anti-Myc or anti-FLAG overnight at 4 °C; beads washed with RIPA three times; Western blot. (In general: Immunoblotting shows a protein as a band on a membrane.)

B1: Flag-TRIM54 (protein, UniProt Q9BYV2 1-358)
chain: MNFTVGFKPLLGDAHSMDNLEKQLICPICLEMFSKPVVILPCQHNLCRKCANDVFQASNPLWQSRGSTTVSSGGRFRCPSCRHEVVLDRHGVYGLQRNLLVENIIDIYKQESSRPLHSKAEQHLMCEEHEEEKINIYCLSCEVPTCSLCKVFGAHKDCEVAPLPTIYKRQKSELSDGIAMLVAGNDRVQAVITQMEEVCQTIEDNSRRQKQLLNQRFESLCAVLEERKGELLQALAREQEEKLQRVRGLIRQYGDHLEASSKLVESAIQSMEEPQMALYLQQAKELINKVGAMSKVELAGRPEPGYESMEQFTVRVEHVAEMLRTIDFQPGASGEEEEVAPDGEEGSAGPEEERPDGP
As for B1, the binding entry is “binds”.
